# Like-named read-outs stand apart in the source and are kept apart here. Structures were worked out from names or drawings and are uncertain.
# The chains behind the UniProt entries cited, without tags or fusion partners. Residues count along the entry.
# UniProt P11717, 41-1365 limits assumed: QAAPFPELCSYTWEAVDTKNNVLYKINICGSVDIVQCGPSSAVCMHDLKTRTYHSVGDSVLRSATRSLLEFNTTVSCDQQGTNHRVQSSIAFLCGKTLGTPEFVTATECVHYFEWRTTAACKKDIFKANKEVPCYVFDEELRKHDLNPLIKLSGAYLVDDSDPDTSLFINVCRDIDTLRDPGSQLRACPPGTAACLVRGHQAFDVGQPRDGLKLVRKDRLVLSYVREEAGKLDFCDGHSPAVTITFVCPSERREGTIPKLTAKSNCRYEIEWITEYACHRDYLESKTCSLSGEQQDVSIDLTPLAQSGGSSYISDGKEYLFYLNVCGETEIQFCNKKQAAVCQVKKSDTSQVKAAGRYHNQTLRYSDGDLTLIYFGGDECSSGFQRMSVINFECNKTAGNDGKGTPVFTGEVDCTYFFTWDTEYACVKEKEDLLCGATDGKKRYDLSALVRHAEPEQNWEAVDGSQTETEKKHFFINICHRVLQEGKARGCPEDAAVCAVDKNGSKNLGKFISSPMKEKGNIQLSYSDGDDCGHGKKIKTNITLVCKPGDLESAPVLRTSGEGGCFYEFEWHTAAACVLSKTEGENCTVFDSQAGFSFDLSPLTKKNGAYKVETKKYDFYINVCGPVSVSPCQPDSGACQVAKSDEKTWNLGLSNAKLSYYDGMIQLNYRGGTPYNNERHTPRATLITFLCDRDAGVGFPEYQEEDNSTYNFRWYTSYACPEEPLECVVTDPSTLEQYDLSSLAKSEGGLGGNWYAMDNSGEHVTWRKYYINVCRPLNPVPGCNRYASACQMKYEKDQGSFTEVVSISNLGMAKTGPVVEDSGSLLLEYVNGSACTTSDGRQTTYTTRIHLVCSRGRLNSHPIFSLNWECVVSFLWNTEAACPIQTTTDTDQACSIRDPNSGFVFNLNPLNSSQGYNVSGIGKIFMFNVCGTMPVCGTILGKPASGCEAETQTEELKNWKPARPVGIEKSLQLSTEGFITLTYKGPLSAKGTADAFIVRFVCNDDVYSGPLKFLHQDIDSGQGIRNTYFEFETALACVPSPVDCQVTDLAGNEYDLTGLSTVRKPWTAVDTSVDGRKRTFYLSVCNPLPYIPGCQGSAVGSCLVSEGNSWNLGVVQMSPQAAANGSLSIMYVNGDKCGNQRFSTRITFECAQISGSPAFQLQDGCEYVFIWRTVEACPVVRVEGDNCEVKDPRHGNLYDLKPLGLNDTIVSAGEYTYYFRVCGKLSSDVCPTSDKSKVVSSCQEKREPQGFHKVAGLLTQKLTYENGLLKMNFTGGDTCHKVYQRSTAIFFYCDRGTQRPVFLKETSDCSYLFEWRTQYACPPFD
# Assays:
# [1] = molecular target: recombinant human CI-M6PR protein (Homo sapiens, UniProt P11717); experiment: Human CI-M6PR binding assay (ELISA)
# Jurkat cells = experiment: Conjugate-mediated uptake of IgG2a-Alexa488 into Jurkat cells; conditions: one hour incubation, FIG. 12; DAR 9-11 per conjugate
# [2] = tested on: wild type (WT) K562 cells; experiment: CI-M6PR mediated uptake of Alexa488-IgE in wild type K562 cells; conditions: omalizumab conjugates, average loading DAR9, FIG. 14
structure (smiles),measurement,setting,value
O=C(CCOCCn1cc(CCCCNC(=S)Nc2ccc(O[C@H]3O[C@H](CCP(=O)(O)O)[C@@H](O)[C@H](O)[C@@H]3O)cc2)nn1)Oc1c(F)c(F)c(F)c(F)c1F,EC50,"[1]; read-out: EC50 (nM) in M6PR binding assay, antibody conjugate, average loading DAR 9.5",0.27 nM
same,EC50,"[1]; read-out: EC50 in M6PR binding assay for conjugates of monovalent compounds of varying linker length and loading, Table 16E, conjugate, m average DAR 9.5",0.27 nM
same,uptake into Jurkat cells (cell fluorescence vs conjugate concentration),Jurkat cells,strong cell uptake
O=C(CCOCCOCCOCCN(CCOCCOCCOCCn1cc(CCCCNC(=S)Nc2ccc(O[C@H]3O[C@H](CCP(=O)(O)O)[C@@H](O)[C@H](O)[C@@H]3O)cc2)nn1)CCOCCOCCOCCn1cc(CCCCNC(=S)Nc2ccc(O[C@H]3O[C@H](CCP(=O)(O)O)[C@@H](O)[C@H](O)[C@@H]3O)cc2)nn1)NCCN1C(=O)C=CC1=O,EC50,"[1]; read-out: EC50 in M6PR binding assay, Table 16B, antibody conjugate, loading printed as (maleimide-Cys conjugation)",0.27 nM
O=C(CCOCCn1cc(COCCOCCOCCNC(=S)Nc2ccc(O[C@H]3O[C@H](CCP(=O)(O)O)[C@@H](O)[C@H](O)[C@@H]3O)cc2)nn1)Oc1c(F)c(F)c(F)c(F)c1F,EC50,"[1]; read-out: EC50 (nM) in M6PR binding assay, antibody conjugate, average loading DAR 11",0.23 nM
same,EC50,"[1]; read-out: EC50 in M6PR binding assay for conjugates of monovalent compounds of varying linker length and loading, Table 16E, conjugate, m average DAR 11",0.23 nM
same,uptake into Jurkat cells (cell fluorescence vs conjugate concentration),Jurkat cells,strong cell uptake
O=C(CCOCCOCCOCCOCCn1cc(CCCCNC(=S)Nc2ccc(O[C@H]3O[C@H](CC(C(=O)O)C(=O)O)[C@@H](O)[C@H](O)[C@@H]3O)cc2)nn1)Oc1c(F)c(F)c(F)c(F)c1F,uptake into Jurkat cells (cell fluorescence vs conjugate concentration),Jurkat cells,strong cell uptake
same,"cell uptake of Alexa488-IgE target, WT K562 versus CI-M6PR KO cells",[2],CI-M6PR dependent

# From patent US20240335544A1, “M6PR CELL SURFACE RECEPTOR BINDING COMPOUNDS AND CONJUGATES” (LYCIA THERAPEUTICS, INC., priority 2021, published 2024)
